Test results taken from PubChem BioAssay AID504467 (National Center for Advancing Translational Sciences (NCATS), 2011).
The campaign covered roughly 330,000 compounds. About 7,700 (2.3%) were called active. The shares of active, inactive and inconclusive entries below differ from those in the screen. Calls follow the shape of the dose curve; as a rule, active = well fitted inhibition curve with a large enough effect; inconclusive = small, poorly fitted or top-dose-only effect, or effect the other way; inactive = flat fitted curve, though single readings scatter. Potencies beside an inconclusive call are fits to weak or partial responses and may not hold up.

Assay: qHTS screen for small molecules that inhibit ELG1-dependent DNA repair in human embryonic kidney (HEK293T) cells expressing luciferase-tagged ELG1; also: nearly all actives have a fitted effect of over 55% in size
Conditions: HEK293T ELG1-luciferase reporter, luminescence, 16 h, DNA damage induced by 5-fluorouridine; activity change, negative = inhibition: at 46.1 µM (top of the series)
Summary of the method: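 Overnight (16 hr) co-exposure of 2,000 cells/well to 5-fluorouridine and compound at 37 °C preceded detection. Luciferase was quantified via ONE-Glo luminescence; loss of signal denotes inhibition.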
% is scaled to controls: 0 for no effect and ±100 for the full control effect; potency is read from the fitted curve at half-maximal effect.

| SMILES | Potency | activity change, negative = inhibition |
| --- | --- | --- |
| O=C(Nc1ccc2ccccc2c1)c1ccc(NS(=O)(=O)c2ccc(Br)s2)cc1 | inconclusive: 14.6 µM [activator, partial curve] |  |
| Cc1ccc(Cl)cc1NC(=O)c1ccccc1OCC(=O)N1CCOCC1 | inconclusive: 14.6 µM [inhibitor, partial curve] |  |
| CCNC(=S)N1CCN=C1Nc1nc(C)cc(C)n1 | inconclusive: 23.1 µM [activator, partial curve] |  |
| O=C(CCc1nnc2ccc(NCc3ccccc3)nn12)NC1CCCC1 |  | inactive: -0.939% |
| C/C(=N\Nc1ccc(C#N)cc1[N+](=O)[O-])c1ccc(C)o1 | inconclusive: 29.1 µM [activator, single point] |  |
| N#Cc1c(NC(=O)CSc2ccccn2)oc(-c2ccccc2)c1-c1ccccc1 |  | inactive: -18.9% |
| Nc1ccc(-c2nc3c(ccc4ccccc43)[nH]2)cc1 | inconclusive: 10.3 µM [activator, partial curve] |  |
| CCCn1nc(NC(=O)c2cccs2)c2cc3cccc(C)c3nc21 | inconclusive: 32.6 µM [inhibitor, partial curve, poor fit] |  |
| O=C(c1cccs1)N(CC1CCCO1)c1nc(-c2ccccc2)cs1 (stereo not given) | inconclusive: 23.1 µM [inhibitor, partial curve] |  |
| O=C(NCc1ccccn1)c1cc2ccccn2n1 | inconclusive: 7.31 µM [activator, partial curve] |  |
| CC(Sc1nc2ncc(Cl)cc2[nH]1)C(=O)c1c(N)n(C)c(=O)n(C)c1=O (stereo not given) |  | inactive: -2.25% |
| COc1cccc(C2C=C(c3ccc(OC)cc3OC)Nc3nnnn32)c1 (stereo not given) | active: 18.4 µM |  |
| COc1ccc(S(=O)(=O)Nc2cccc3c2O[C@H](CN(C)S(=O)(=O)c2ccc(OC)cc2)[C@@H](C)CN([C@H](C)CO)C3=O)cc1 |  | inactive: -17.5% |
| Cc1ccc(OCCCSc2n[nH]c(N)n2)cc1 | inconclusive: 23.1 µM [activator, single point] |  |
| O=C1/C(=C\c2ccc(Br)o2)SC(=Nc2ccccc2)N1c1ccccc1 | inconclusive: 6.51 µM [inhibitor, partial curve, poor fit] |  |
| CCOc1ccc(-c2cc(C(=O)N3CCN(C)CC3)c3ccccc3n2)cc1 | inconclusive: 5.8 µM [activator, full curve] |  |
| COc1ccc(/C=N/NC(=O)c2ccccc2[N+](=O)[O-])cc1CN1CCc2cc(OC)c(OC)cc2C1C (stereo not given) | inconclusive: 36.6 µM [inhibitor, single point] |  |
| Cc1cc(NC(=O)CCC(=O)N(Cc2cccs2)C(C(=O)NC2CCCC2)c2ccncc2)no1 (stereo not given) |  | inactive: -1.64% |
| FC(F)(F)c1cccc(CNC2c3ccccc3-c3ccccc32)c1 | inconclusive: 29.1 µM [inhibitor, single point] |  |
| O=C1/C(=C/c2cccnc2)SC(=S)N1c1ccccc1 | inconclusive: 29.1 µM [activator, single point] |  |
| CCCCc1nc2cc(C(=O)NCc3cc(C)n(C)n3)ccc2o1 | inconclusive: 23.1 µM [activator, single point] |  |
| CCOC(=O)N1CCC(NC(=O)CCc2c(C)nc3c(c(C)nn3C(C)(C)C)c2C)CC1 | inconclusive: 29.1 µM [inhibitor, single point] |  |
| Cn1c(C=O)c(-c2ccc3cc[nH]c3c2)c2ccccc21 |  | inactive: -15.4% |

Some of these compounds in order of molar mass, low to high:

| SMILES | Potency | activity change, negative = inhibition |
| --- | --- | --- |
| FC(F)(F)c1cccc(CNC2c3ccccc3-c3ccccc32)c1 | inconclusive: 29.1 µM [inhibitor, single point] |  |
| O=C(Nc1ccc2ccccc2c1)c1ccc(NS(=O)(=O)c2ccc(Br)s2)cc1 | inconclusive: 14.6 µM [activator, partial curve] |  |
| Cc1cc(NC(=O)CCC(=O)N(Cc2cccs2)C(C(=O)NC2CCCC2)c2ccncc2)no1 (stereo not given) |  | inactive: -1.64% |

Carrying on:

| SMILES | Potency | activity change, negative = inhibition |
| --- | --- | --- |
| CC(C)(C)OC(=O)NCCCCCc1nnc(SCc2ccccc2)o1 | inconclusive: 5.8 µM [inhibitor, partial curve] |  |
| COc1ccc(C2(C)ON(c3ccccc3C(F)(F)F)C2=O)cc1 (stereo not given) |  | inactive: -20.7% |
| O=C(CCC(=O)c1ccccc1)NCc1ccccc1 |  | inactive: -6.48% |
| Cc1ccccc1NC(=O)COC(=O)C1(C)CC1(Cl)Cl (stereo not given) | inconclusive: 0.259 µM [inhibitor, full curve, poor fit] |  |
| CC(=C/c1ccco1)/C=N/N1CCN(c2ccccc2)CC1 | inconclusive: 11.2 µM [activator, partial curve, poor fit] |  |
| COc1ccc(CNC(=S)Nc2cccc(F)c2)cc1 |  | inactive: -3.53% |
| COc1ccccc1N1CCN(/N=C\c2ccccc2)CC1 |  | inactive: 0% |
| Cc1nc(NC(=O)c2cccc(Cl)c2)sc1C(=O)N1CCCCC1 | inconclusive: 20.6 µM [inhibitor, partial curve] |  |
| COc1ccc([C@H]2CC(=O)C=C(c3c(C)cc(C)cc3C)C2)cc1 |  | inactive: -25.9% |
| CC(Sc1ncccn1)C(=O)Nc1ccc2c(c1)OCO2 (stereo not given) | inconclusive: 23.1 µM [activator, single point] |  |
| Fc1ccccc1-c1cc2ccccc2cn1 | inconclusive: 11.6 µM [activator, partial curve] |  |
| O=C(Cc1ccccc1)c1ccccc1C(=O)N1CCCCC1 |  | inactive: 0.252% |
| Cc1ccc(NC(=O)C2CCCCC2)c(O)c1 | inconclusive: 29.1 µM [activator, single point] |  |
| Cc1ccc(C(C)(C)C)cc1S(=O)(=O)Nc1nc2ccccc2nc1Cl | inconclusive: 23.1 µM [inhibitor, partial curve, poor fit] |  |
| Cc1cccc(/C(N)=N/OC(=O)c2ccc3c(c2)OCO3)c1 | inconclusive: 2.06 µM [activator, full curve] |  |
| CC(=O)c1ccccc1OCC(=O)Nc1cccc(S(=O)(=O)N2CCCC2)c1 | inconclusive: 20.6 µM [inhibitor, single point] |  |
| COc1ccc(CN(CCC(c2ccccc2)c2ccc(OC(C)C)cc2)C(=O)CCl)cc1OC (stereo not given) | inconclusive: 29.1 µM [inhibitor, single point] |  |
| CCOC(=O)c1nnn(-c2nc(OC)nc(N(C)C)n2)c1-c1ccccc1 | inconclusive: 29.1 µM [inhibitor, single point] |  |
| Cc1ccc(NC2=CC(=O)CC(C)(C)C2)cc1C |  | inactive: 8.38% |
| Cc1ccccc1C(=O)Nc1ccc(S(=O)(=O)N2CC(C)OC(C)C2)cc1 (stereo not given) | inconclusive: 16.4 µM [inhibitor, partial curve] |  |
| Cc1ccccc1C(=O)Nc1ccccc1N1CCN(C(=O)c2ccccc2)CC1 | inconclusive: 18.3 µM [inhibitor, single point] |  |
| C/C(=N\NC(=S)Nc1cc(S(=O)(=O)N2CCOCC2)ccc1Cl)c1ccccc1F | inconclusive: 4.61 µM [activator, partial curve] |  |
